From article PMC7950113
No constants are given. Whether binding was seen depends on the method and setting. In cells and extracts the contact can be indirect. Here binding means that the protein was enriched with, or labelled near, the bait; the list need not be complete.

Sequences of proteins named here, by UniProt entry; tags and fusion partners are left off. A change or cut given only in a name is not applied to a line headed by its entry. A line that says so, or that is headed by a name, gives the form on record, which may keep a tag or linker. Residues count along the entry.
FLAG-tagged thyroglobulin, WT (P01266, residues 20-2768): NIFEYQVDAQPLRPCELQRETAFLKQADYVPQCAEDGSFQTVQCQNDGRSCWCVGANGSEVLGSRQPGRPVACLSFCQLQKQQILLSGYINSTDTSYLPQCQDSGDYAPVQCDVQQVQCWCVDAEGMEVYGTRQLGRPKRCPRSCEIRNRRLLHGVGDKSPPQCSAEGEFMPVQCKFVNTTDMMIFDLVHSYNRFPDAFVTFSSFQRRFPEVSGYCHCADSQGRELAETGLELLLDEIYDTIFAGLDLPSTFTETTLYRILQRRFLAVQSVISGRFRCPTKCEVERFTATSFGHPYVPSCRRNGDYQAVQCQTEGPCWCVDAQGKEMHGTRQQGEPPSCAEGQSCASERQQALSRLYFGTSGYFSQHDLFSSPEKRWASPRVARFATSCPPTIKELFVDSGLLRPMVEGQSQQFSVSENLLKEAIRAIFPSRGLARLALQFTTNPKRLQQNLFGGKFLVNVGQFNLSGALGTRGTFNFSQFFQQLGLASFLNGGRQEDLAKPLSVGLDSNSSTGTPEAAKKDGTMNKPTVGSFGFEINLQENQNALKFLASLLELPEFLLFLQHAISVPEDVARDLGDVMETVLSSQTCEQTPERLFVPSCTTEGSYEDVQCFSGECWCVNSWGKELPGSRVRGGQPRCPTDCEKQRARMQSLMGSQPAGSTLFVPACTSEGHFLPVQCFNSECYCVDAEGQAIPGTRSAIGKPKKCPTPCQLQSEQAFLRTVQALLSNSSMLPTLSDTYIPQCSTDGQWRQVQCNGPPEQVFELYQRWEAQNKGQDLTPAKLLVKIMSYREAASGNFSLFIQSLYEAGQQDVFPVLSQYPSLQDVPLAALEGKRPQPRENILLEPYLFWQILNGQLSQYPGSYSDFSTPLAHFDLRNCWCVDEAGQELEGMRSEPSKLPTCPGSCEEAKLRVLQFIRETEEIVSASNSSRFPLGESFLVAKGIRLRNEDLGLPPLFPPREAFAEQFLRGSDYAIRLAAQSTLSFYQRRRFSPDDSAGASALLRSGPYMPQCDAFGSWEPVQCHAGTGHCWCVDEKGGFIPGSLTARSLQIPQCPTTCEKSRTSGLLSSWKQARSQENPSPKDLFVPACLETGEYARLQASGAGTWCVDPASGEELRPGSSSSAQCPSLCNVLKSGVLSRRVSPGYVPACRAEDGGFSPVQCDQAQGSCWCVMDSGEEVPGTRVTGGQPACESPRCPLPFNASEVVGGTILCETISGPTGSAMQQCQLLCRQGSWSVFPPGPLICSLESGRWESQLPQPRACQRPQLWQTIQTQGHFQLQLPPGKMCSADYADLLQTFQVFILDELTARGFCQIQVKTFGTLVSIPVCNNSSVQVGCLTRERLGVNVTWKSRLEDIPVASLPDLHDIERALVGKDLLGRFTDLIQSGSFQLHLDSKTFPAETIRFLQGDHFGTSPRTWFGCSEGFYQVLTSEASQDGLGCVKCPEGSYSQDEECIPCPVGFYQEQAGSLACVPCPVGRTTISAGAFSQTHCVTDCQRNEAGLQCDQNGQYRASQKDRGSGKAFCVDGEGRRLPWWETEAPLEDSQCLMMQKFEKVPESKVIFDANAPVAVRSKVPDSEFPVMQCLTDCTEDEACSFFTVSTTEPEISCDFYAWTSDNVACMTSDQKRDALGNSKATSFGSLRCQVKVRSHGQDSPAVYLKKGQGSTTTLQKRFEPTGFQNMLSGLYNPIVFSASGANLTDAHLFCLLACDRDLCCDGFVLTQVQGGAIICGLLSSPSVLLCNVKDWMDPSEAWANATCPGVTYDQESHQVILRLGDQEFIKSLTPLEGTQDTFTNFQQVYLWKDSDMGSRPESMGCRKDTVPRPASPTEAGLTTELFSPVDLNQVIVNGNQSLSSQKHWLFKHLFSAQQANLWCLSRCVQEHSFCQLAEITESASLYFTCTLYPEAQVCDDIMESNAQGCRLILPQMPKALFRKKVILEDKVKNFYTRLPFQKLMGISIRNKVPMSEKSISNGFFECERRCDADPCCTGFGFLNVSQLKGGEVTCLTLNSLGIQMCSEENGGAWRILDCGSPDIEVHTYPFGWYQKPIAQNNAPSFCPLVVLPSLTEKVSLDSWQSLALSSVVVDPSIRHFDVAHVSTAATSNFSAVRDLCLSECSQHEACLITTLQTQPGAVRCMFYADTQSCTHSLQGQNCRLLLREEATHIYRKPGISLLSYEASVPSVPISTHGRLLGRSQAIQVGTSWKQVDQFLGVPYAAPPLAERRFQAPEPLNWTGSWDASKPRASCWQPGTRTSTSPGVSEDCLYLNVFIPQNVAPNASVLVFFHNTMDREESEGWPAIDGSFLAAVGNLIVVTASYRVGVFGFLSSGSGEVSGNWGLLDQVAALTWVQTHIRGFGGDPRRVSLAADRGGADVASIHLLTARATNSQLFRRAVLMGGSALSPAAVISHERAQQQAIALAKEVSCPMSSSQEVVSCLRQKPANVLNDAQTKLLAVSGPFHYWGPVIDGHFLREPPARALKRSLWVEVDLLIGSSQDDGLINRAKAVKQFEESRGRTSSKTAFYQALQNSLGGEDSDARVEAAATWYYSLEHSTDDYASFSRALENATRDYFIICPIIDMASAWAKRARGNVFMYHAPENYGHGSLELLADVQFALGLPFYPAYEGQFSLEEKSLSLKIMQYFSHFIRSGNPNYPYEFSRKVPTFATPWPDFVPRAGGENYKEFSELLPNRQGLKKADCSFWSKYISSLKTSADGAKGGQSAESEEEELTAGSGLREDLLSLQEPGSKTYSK
FLAG-tagged thyroglobulin G2341R (P01266, form named): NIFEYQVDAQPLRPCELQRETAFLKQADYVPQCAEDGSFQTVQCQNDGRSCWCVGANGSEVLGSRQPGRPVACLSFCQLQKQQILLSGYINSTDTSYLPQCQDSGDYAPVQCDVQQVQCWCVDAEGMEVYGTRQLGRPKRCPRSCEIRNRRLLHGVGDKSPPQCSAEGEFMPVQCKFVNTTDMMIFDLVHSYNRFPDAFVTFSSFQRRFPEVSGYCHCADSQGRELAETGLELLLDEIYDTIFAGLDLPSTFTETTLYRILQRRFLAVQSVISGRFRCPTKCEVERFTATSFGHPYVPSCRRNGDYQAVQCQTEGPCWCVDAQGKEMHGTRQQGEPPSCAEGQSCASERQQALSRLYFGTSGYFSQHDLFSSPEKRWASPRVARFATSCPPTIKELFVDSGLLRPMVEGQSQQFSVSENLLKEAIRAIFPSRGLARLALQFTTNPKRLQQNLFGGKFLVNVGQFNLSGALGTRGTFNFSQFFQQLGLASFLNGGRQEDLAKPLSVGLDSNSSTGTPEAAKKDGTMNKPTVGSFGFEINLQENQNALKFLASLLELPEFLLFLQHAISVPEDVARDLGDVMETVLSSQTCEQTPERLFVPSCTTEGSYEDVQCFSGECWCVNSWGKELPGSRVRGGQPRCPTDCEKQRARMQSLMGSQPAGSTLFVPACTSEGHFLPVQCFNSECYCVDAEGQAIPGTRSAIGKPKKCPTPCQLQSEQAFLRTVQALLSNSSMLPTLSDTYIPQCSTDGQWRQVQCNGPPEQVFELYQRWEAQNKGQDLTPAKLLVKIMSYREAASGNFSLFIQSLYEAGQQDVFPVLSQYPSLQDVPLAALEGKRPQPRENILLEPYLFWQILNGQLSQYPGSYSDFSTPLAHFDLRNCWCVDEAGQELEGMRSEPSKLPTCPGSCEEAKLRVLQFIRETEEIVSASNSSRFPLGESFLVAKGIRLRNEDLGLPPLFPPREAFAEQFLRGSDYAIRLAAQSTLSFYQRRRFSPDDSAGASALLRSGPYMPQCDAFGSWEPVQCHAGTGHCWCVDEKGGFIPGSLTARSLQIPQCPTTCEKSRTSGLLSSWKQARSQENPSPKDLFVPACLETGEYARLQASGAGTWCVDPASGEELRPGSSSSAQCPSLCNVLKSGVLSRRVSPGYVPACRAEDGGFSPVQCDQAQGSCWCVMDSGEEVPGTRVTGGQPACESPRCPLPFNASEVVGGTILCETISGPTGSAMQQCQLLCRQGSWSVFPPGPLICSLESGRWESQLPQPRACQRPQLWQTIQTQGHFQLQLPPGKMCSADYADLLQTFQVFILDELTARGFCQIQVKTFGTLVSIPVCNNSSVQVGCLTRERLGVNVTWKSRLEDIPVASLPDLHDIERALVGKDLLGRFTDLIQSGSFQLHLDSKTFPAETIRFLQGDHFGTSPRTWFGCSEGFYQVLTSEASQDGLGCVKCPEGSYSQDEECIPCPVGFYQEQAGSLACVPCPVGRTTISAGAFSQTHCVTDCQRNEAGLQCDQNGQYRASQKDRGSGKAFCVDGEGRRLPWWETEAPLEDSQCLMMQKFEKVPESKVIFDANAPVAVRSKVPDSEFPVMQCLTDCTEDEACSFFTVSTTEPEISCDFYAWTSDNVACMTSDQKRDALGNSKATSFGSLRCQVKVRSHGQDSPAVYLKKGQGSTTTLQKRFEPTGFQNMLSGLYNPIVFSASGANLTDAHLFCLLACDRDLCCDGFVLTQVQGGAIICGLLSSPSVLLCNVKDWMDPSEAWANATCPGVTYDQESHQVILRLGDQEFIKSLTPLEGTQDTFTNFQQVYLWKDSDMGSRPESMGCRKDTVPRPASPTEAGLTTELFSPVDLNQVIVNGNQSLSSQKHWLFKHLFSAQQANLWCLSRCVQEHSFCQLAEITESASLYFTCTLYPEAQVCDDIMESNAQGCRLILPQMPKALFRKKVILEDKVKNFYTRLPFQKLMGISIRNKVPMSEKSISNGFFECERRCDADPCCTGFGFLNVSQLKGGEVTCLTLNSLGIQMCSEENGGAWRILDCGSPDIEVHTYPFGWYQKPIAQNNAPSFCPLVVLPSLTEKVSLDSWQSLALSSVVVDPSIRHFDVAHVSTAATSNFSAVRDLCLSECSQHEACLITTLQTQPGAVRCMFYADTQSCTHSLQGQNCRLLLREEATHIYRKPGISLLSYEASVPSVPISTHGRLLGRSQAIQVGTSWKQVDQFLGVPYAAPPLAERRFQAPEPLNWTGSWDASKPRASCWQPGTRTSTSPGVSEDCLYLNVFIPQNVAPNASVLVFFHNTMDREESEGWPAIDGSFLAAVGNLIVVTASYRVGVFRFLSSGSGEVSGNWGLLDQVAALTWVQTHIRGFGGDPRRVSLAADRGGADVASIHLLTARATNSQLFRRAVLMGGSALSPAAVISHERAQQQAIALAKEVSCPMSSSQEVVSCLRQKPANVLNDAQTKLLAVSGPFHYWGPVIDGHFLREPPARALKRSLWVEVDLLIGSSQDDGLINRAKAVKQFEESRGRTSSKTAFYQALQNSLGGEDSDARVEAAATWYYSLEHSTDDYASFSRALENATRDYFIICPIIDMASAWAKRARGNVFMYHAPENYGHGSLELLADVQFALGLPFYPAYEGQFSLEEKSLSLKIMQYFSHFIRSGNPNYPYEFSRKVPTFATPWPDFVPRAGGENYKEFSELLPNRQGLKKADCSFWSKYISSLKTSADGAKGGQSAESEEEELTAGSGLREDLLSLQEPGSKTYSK
UniProt P14625, residues 22-803: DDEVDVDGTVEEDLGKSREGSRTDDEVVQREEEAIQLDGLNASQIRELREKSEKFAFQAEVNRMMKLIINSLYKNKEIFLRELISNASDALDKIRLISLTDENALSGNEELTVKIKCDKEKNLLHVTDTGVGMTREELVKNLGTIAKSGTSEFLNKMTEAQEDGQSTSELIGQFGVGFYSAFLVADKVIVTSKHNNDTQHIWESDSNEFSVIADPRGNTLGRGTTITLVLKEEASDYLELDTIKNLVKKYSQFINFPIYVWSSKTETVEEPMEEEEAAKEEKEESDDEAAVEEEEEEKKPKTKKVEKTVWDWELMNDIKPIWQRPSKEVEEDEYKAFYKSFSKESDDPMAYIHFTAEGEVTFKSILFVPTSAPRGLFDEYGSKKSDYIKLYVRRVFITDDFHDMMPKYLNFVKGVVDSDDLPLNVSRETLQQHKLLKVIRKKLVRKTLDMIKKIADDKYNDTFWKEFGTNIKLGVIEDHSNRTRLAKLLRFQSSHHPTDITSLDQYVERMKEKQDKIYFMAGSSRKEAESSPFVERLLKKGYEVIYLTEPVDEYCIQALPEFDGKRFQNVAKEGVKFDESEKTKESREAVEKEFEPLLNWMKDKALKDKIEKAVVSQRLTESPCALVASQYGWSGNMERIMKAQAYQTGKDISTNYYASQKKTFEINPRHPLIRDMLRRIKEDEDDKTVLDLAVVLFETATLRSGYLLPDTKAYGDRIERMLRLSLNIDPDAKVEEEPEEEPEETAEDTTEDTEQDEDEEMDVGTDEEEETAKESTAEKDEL

Key:
Experiment in all cases: affinity purification with mass spectrometry; FLAG-Tg variants transiently expressed in HEK293 cells; cells cross-linked with 0.5 mM DSP, RIPA lysate, M2 anti-flag agarose or G1 Anti-DYKDDDDK resin overnight at 4 °C, four RIPA washes; TMT sixplex LC-MS/MS against mock AP (untagged Tg, EGFP or tdTomato)
[1] = biological target: FLAG-tagged thyroglobulin G2341R (human) (UniProt P01266)
[2] = biological target: FLAG-tagged thyroglobulin, WT (human) (UniProt P01266)
[3] = biological target: FLAG-tagged thyroglobulin L2284P (human) (UniProt P01266)
[4] = biological target: FLAG-tagged thyroglobulin A2234D (human) (UniProt P01266)
[5] = biological target: FLAG-tagged thyroglobulin C1264R (human) (UniProt P01266)

Measured: binding

94 kDa glucose-regulated protein (from UniProt P14625 22-803)
binds: all assays above

DnaJ heat shock protein family member B11 (from UniProt Q9UBS4 23-358)
binds: all assays above

ARHGAP21 (from UniProt Q5T5U3 1-1958)
binds: [4]

TUBA4A (from UniProt P68366 1-448)
binds: [2]

valosin containing protein (from UniProt P55072 1-806)
binds: all assays above

UDP-glucose glycoprotein glucosyltansferase 1 (from UniProt Q9NYU2 43-1555)
binds: all assays above

calnexin (from UniProt P27824 21-592)
binds: [2]

PLEC (from UniProt Q15149 1-4684)
binds: [2]

binding immunoglobulin protein (from UniProt P11021 19-654)
binds: all assays above

Protein disulfide isomerase family A member 1 (from UniProt P07237 18-508)
binds: [2] | [3]

thioredoxin domain containing 5 (from UniProt Q8NBS9 33-432)
binds: [2]

protein disulfide isomerase family A member 3 (from UniProt P30101 25-505)
binds: all assays above

calreticulin (from UniProt P27797 18-417)
binds: all assays above

protein disulfide isomerase family A member 9 (from UniProt P30040 33-261)
binds: [2] | [4]
